Construct, isoform or probe ends are uncertain for at least one entry. Negatives hold for the conditions tested.
Molecular target: GST (UniProt P08515)
Test: EMSA
Details: GST alone 'hardly bound at all'; 10 mM Tris-HCl pH 8.0, 40 mM KCl, 6% glycerol, 1 mM DTT, 0.05% NP-40, 10 ng/ul poly(dI-dC), 30 min at 4 C; 4% PAGE in 0.5x TBE at 4 C; protein 0.15-1.35 ug; recombinant protein; label: 32P 5' end label

Amino acid sequences for entries named in this document (tags omitted).
UniProt P08515, whole entry: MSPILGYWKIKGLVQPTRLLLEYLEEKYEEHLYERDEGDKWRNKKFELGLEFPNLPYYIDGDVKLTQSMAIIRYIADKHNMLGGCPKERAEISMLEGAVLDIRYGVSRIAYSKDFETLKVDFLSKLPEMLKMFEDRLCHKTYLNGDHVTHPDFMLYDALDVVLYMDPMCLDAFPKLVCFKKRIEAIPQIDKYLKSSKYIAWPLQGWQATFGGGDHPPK

Question: Does “GGCACTTCACTAGCATAACAATGAGGGCTC (double strand) [Oct-4 probe]” bind?
Answer: Result: no binding
